The results in this text go back to paper PMC12811313.

Amino acid sequences for entries named in this document (tags omitted). A change or cut given only in a name is not applied to a line headed by its entry.
UniProt O00161: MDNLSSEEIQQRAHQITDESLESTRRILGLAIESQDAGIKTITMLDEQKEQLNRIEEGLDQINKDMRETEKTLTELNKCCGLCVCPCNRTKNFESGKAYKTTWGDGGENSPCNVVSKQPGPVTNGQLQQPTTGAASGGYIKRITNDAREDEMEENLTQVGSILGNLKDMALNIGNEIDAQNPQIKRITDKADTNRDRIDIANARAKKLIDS
UniProt P19474: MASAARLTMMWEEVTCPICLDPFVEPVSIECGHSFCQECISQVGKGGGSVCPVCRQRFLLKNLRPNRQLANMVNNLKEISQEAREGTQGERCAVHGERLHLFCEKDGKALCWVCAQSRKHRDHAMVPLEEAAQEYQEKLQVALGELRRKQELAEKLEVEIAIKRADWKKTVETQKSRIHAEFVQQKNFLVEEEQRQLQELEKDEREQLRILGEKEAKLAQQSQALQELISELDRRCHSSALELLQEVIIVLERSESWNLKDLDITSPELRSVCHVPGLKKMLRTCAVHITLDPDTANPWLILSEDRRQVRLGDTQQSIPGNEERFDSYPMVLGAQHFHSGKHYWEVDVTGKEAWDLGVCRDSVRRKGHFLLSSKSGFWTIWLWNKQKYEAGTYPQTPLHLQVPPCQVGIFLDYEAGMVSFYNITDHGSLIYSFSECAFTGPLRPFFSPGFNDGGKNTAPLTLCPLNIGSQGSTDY

Results are given in words; binding and its absence hold for the method and conditions named. Binding seen in cells or lysates may run through a third protein.

The target in assay [1] is SNAP23 (in HEK293T cells) (UniProt O00161). Put plainly: co-IP; lysates of HEK293T cells expressing Trim21 deletion mutants.
In a further assay the target is T1, TFAM (in HEK293T cells) (UniProt Q00059).
T1 sequence: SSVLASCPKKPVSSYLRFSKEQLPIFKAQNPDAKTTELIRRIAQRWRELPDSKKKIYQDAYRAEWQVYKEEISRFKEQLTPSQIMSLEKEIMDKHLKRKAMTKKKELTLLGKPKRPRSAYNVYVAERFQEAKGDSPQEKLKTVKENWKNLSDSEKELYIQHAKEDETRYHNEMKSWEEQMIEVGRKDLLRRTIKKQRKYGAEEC
Described as above.

For the substance “TRIM21 (△268–465aa) (from UniProt P19474) (domain or fragment)”, the binding entry (in assay [1]; in the assay with TFAM (in HEK293T cells)) was “no binding” throughout.
